Inconclusive results, whose numbers are uncertain, are shown with a selection of clear calls. Potencies of inconclusive entries are doubtful fits and often do not repeat. Active and inactive are the calls of the source. Calls follow the shape of the dose curve; as a rule, active = well fitted inhibition curve with a large enough effect; inconclusive = small, poorly fitted or top-dose-only effect; inactive = no such curve, though single readings can be large or run the other way.
Assay: Counterscreen for APE1 Inhibitors: Fluorescent Dye Displacement Validation Assay (AID 1707);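 as to activity change, negative = inhibition: plate controls were ThO with dsDNA and no compound for no effect and ThO without dsDNA for full effect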
Conditions: fluorescent dye displacement from DNA; series mostly up to 57.1 µM; activity change, negative = inhibition: at the top concentration
Text: In order to distinguish true inhibitors of DNA-processing enzymes from promiscuous DNA-binding compounds among screening assay hits, we developed a homogeneous and miniaturized assay based on fluorescent dye displacement test as originally described by Tse and Boger (Accounts of Chemical Research (2004) 37: 61-69). The assay is based on the strong enhancement of fluorescence when Thiazole Orange (ThO) binds to double-stranded DNA: conversely, in the presence of a DNA-binding compound, Thiazole Orange is displaced from the DNA and its fluorescence is reduced.
Buffer. 50 mM Tris-HCl (pH7.5) containing 50mM NaCl, 2 mM MgCl2, and 0.01% Tween-20.
Buffer containing 250 nM ThO in columns 3 and 4 as negative control (no dsDNA).
Reaction mixture: 250 nM ThO and 50 nM dsDNA at final concentration dispensed throughout the plate: in columns 1, 2, 5-48. Column 1 is neutral (100% activity).
5''TAMRA- TC ACC FTC GTA CGA CTC
3'' AG TGG GAG CAT GCT GAG
where F denotes tetrahydrofuran.
Control: Pintool transfer of control compound WB64 (W4761, Sigma-Aldrich) to column 2 of all assay plates as a two-fold 16-point dilution in duplicate (concentration range 5.75 uM - 0.175 nM).
Four uL of reaction mixtures were dispensed to 1536-well Greiner black solid bottom plates. Compounds (23 nL) were transferred […] in order to measure the endpoint fluorescence using 480 nm excitation and 540 nm emission fluorescence protocol.
With `NC1CCc2cc(O)c(O)cc2C1` (stereo unspecified) the Potency was inconclusive: 39.8 µM [inhibitor, single point].
In the case of `Brc1c(Br)c(Br)c2n[nH]nc2c1Br`, the Potency was inconclusive: 31.6 µM [inhibitor, single point].
With `Cc1cc(O)c2c(c1)C(=O)c1cc(O)cc(O)c1C2=O` the Potency was active: 28.2 µM.
For `CCc1c(C(=O)OC)ncc2[nH]c3cc(OC)c(OC)cc3c12`, the Potency was inconclusive: 20 µM [inhibitor, partial curve].
For `c1ccc2c(c1)[I+]c1ccccc1-2`, the Potency was inconclusive: 25.1 µM [inhibitor, partial curve].
In the case of `CCCN1CCc2cc(O)cc3c2C1Cc1ccc(O)c(O)c1-3` (stereo unspecified), the Potency was inconclusive: 20 µM [inhibitor, single point].
For `N#C/C(=C\c1ccc(O)c(O)c1)C(=O)NCCCNC(=O)/C(C#N)=C/c1ccc(O)c(O)c1`, the Potency was inconclusive: 20 µM [inhibitor, single point].
In the case of `COc1ccc2c(c1)/C(=C/c1cnc[nH]1)C(=O)N2`, the Potency was inconclusive: 22.4 µM [inhibitor, partial curve].
In the case of `NC(N)=NC(=O)c1nc(Cl)c(N)nc1N`, the Potency was inconclusive: 20 µM [inhibitor, single point].
For `CCCN(CCC)C(=O)Cc1c(-c2ccc(Cl)cc2)nc2c(Cl)cc(Cl)cn12`, the “activity change, negative = inhibition” value was inactive: -0.607%.
With `CCCN1CCC[C@H](c2cccc(O)c2)C1` the “activity change, negative = inhibition” value was inactive: 0.561%.
In the case of `CCCCCCCCCCCCCC(=O)O[C@@H]1[C@@H](C)[C@@]2(O)[C@@H](C=C(CO)C[C@@]3(O)C(=O)C(C)=C[C@@H]23)C2C(C)(C)[C@@]21OC(C)=O` (stereo partly specified), the Potency was inconclusive: 17.8 µM [inhibitor, partial curve].
With `C/C(O)=C(\C#N)C(=O)Nc1cc(Br)ccc1Br` the Potency was inconclusive: 17.8 µM [inhibitor, partial curve].
In the case of `NC(Cc1cc(O)c(O)cc1O)C(=O)O` (stereo unspecified), the Potency was active: 7.94 µM.
With `CC(=O)c1c(O)c(C)c(O)c(Cc2c(O)c3c(c(C(=O)/C=C/c4ccccc4)c2O)OC(C)(C)C=C3)c1O` the Potency was active: 2.24 µM.
For `CCN(CCCl)Cc1ccccc1Br`, the “activity change, negative = inhibition” value was inactive: -0.241%.

— PubChem BioAssay (NCATS)
Potency is read from the fitted curve at half-maximal effect.
